These results are taken from doi:10.1101/2022.07.11.499655.

These are yes or no findings as the source states them, for the method shown. Binding seen in cells or lysates may run through a third protein. These calls come from enrichment with a bait or labelling near it, and not all partners need be listed.

The target of the experiment is NCOR2-013 (Flag-tagged), truncated protein of NCOR2/SMRT (human). Description: affinity purification with mass spectrometry.

B1: JunB (protein, UniProt P17275 1-347)
chain: MCTKMEQPFYHDDSYTATGYGRAPGGLSLHDYKLLKPSLAVNLADPYRSLKAPGARGPGPEGGGGGSYFSGQGSDTGASLKLASSELERLIVPNSNGVITTTPTPPGQYFYPRGGGSGGGAGGAGGGVTEEQEGFADGFVKALDDLHKMNHVTPPNVSLGATGGPPAGPGGVYAGPEPPPVYTNLSSYSPASASSGGAGAAVGTGSSYPTTTISYLPHAPPFAGGHPAQLGLGRGASTFKEEPQTVPEARSRDATPPVSPINMEDQERIKVERKRLRNRLAATKCRKRKLERIARLEDKVKTLKAENAGLSSTAGLLREQVAQLKQKVMTHVSNGCQLLLGVKGHAF
Turning to B1, the binding result is reported as “binds”.
